# The list shows a part of the results.
# B1: Mincle (Bos taurus) (protein)
# chain: MNSSTSPASQTERRCFSFQLFSWAIAGTSILLLSACFITRCVVTYSIFQLCDEKKFQPPGDSMELSCYNDGSGSVKNCCPLKWFHFQSSCYLFSPDTMSWRASLKNCSSMGAHLVVINTQEEQEFLYYTKPRKKEFYIGLTDQVTEGQWQWVDGTPFTKSLSFWDAGEPNNLVIVEDCATIRDSSNPRQNWNDVPCFFNMFRVCEMPERKI
# What was measured:
# Test in all cases: glycan array binding signal (z-score within array); higher = stronger binding
# Conditions in all cases: glycan notation: IUPAC condensed, linker removed
# [1] = target: Man(a1-2)Man(a1-3)[Man(a1-2)Man(a1-6)]Man(a1-6)[Man(a1-2)Man(a1-2)Man(a1-3)]Man
# How it was run: (§1)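 The binding signal is a Z-score computed within each array and averaged over linkers. Arrays of the same protein sequence at different concentrations or buffers were also averaged together. Data originate from 3228 arrays in the Consortium for Functional Glycomics database, kept only where the protein sequence was available.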
# [2] = target: Man(a1-2)Man(a1-3)[Man(a1-2)Man(a1-6)]Man(a1-6)[Man(a1-2)Man(a1-2)Man(a1-3)]Man(b1-4)GlcNAc(b1-4)GlcNAc
# How it was run: as §1
# [3] = target: Man(a1-2)Man(a1-3)[Man(a1-6)]Man(a1-6)[Man(a1-2)Man(a1-3)]Man(b1-4)GlcNAc(b1-4)GlcNAc
# How it was run: as §1
# [4] = target: Man(a1-2)Man(a1-6)[Man(a1-3)]Man(a1-6)[Man(a1-2)Man(a1-2)Man(a1-3)]Man
# How it was run: as §1
# [5] = target: Man(a1-2)Man(a1-6)[Man(a1-3)]Man(a1-6)[Man(a1-2)Man(a1-2)Man(a1-3)]Man(b1-4)GlcNAc(b1-4)GlcNAc
# How it was run: as §1
# Man(a1-3)[Man(a1-6)]Man = target: Man(a1-3)[Man(a1-6)]Man
# How it was run: as §1
# [6] = target: Man(a1-3)[Man(a1-6)]Man(a1-6)[Man(a1-2)Man(a1-3)]Man(b1-4)GlcNAc(b1-4)GlcNAc
# How it was run: as §1
# [7] = target: Man(a1-3)[Man(a1-6)]Man(a1-6)[Man(a1-3)]Man
# How it was run: as §1
# [8] = target: Man(a1-3)[Man(a1-6)]Man(a1-6)[Man(a1-3)]Man(b1-4)GlcNAc(b1-4)GlcNAc
# How it was run: as §1
# [9] = target: Man(a1-3)[Man(a1-6)]Man(b1-4)GlcNAc(b1-4)GlcNAc
# How it was run: as §1
# [10] = target: Man(a1-3)[Man(a1-6)]Man(b1-4)GlcNAc(b1-4)[Fuc(a1-6)]GlcNAc
# How it was run: as §1
# Man(a1-6)Man = target: Man(a1-6)Man
# How it was run: as §1
# Man(b1-4)GlcNAc = target: Man(b1-4)GlcNAc
# How it was run: as §1
# MurNAc(b1-4)GlcNAc = target: MurNAc(b1-4)GlcNAc
# How it was run: as §1
# Neu5Ac(a2-3)Gal = target: Neu5Ac(a2-3)Gal
# How it was run: as §1
# [11] = target: Neu5Ac(a2-3)Gal(b1-3)GalNAc
# How it was run: as §1
# [12] = target: Neu5Ac(a2-3)Gal(b1-3)GalNAc(b1-3)Gal(a1-4)Gal(b1-4)Glc
# How it was run: as §1
# [13] = target: Neu5Ac(a2-3)Gal(b1-3)GalNAc(b1-4)Gal(b1-4)Glc
# How it was run: as §1
# [14] = target: Neu5Ac(a2-3)Gal(b1-3)GalNAc(b1-4)[Neu5Ac(a2-3)]Gal(b1-4)Glc
# How it was run: as §1
# [15] = target: Neu5Ac(a2-3)Gal(b1-3)GalNAc(b1-4)[Neu5Ac(a2-8)Neu5Ac(a2-3)]Gal(b1-4)Glc
# How it was run: as §1
# [16] = target: Neu5Ac(a2-3)Gal(b1-3)GalNAc6S
# How it was run: as §1
# [17] = target: Neu5Ac(a2-3)Gal(b1-3)GlcNAc
# How it was run: as §1
# [18] = target: Neu5Ac(a2-3)Gal(b1-3)GlcNAc(b1-2)Man
# How it was run: as §1
# [19] = target: Neu5Ac(a2-3)Gal(b1-3)GlcNAc(b1-2)Man(a1-3)[GlcNAc(b1-4)][Neu5Ac(a2-3)Gal(b1-3)GlcNAc(b1-2)Man(a1-6)]Man(b1-4)GlcNAc(b1-4)GlcNAc
# How it was run: as §1
# [20] = target: Neu5Ac(a2-3)Gal(b1-3)GlcNAc(b1-2)Man(a1-3)[Neu5Ac(a2-3)Gal(b1-3)GlcNAc(b1-2)Man(a1-6)]Man(b1-4)GlcNAc(b1-4)GlcNAc
# How it was run: as §1
# [21] = target: Neu5Ac(a2-3)Gal(b1-3)GlcNAc(b1-2)[Neu5Ac(a2-3)Gal(b1-3)GlcNAc(b1-4)]Man(a1-6)[Neu5Ac(a2-3)Gal(b1-3)GlcNAc(b1-2)Man(a1-3)]Man(b1-4)GlcNAc(b1-4)GlcNAc
# How it was run: as §1
# [22] = target: Neu5Ac(a2-3)Gal(b1-3)GlcNAc(b1-3)Gal(b1-3)GlcNAc
# How it was run: as §1
# [23] = target: Neu5Ac(a2-3)Gal(b1-3)GlcNAc(b1-3)Gal(b1-4)GlcNAc
# How it was run: as §1
# [24] = target: Neu5Ac(a2-3)Gal(b1-3)GlcNAc(b1-3)GalNAc
# How it was run: as §1
# [25] = target: Neu5Ac(a2-3)Gal(b1-3)GlcNAc(b1-6)GalNAc
# How it was run: as §1
# [26] = target: Neu5Ac(a2-3)Gal(b1-3)GlcNAc6S
# How it was run: as §1
# [27] = target: Neu5Ac(a2-3)Gal(b1-3)[Fuc(a1-4)]GlcNAc
# How it was run: as §1
# [28] = target: Neu5Ac(a2-3)Gal(b1-3)[Fuc(a1-4)]GlcNAc(b1-3)Gal(b1-3)[Fuc(a1-4)]GlcNAc
# How it was run: as §1
# [29] = target: Neu5Ac(a2-3)Gal(b1-3)[Fuc(a1-4)]GlcNAc(b1-3)Gal(b1-4)[Fuc(a1-3)]GlcNAc
# How it was run: as §1
# [30] = target: Neu5Ac(a2-3)Gal(b1-3)[GlcNAc(b1-6)]GalNAc
# How it was run: as §1
# [31] = target: Neu5Ac(a2-3)Gal(b1-3)[Neu5Ac(a2-6)]GalNAc
# How it was run: as §1
# [32] = target: Neu5Ac(a2-3)Gal(b1-3)[Neu5Ac(a2-6)]GlcNAc(b1-3)[Fuc(a1-3)[Gal(b1-4)]GlcNAc(b1-6)]Gal(b1-4)Glc
# How it was run: as §1
# [33] = target: Neu5Ac(a2-3)Gal(b1-3)]Neu5Ac(a2-3)Gal(b1-4)]GlcNAc
# How it was run: as §1
# Neu5Ac(a2-3)Gal(b1-4)Glc = target: Neu5Ac(a2-3)Gal(b1-4)Glc
# How it was run: as §1
# [34] = target: Neu5Ac(a2-3)Gal(b1-4)GlcNAc
# How it was run: as §1
# [35] = target: Neu5Ac(a2-3)Gal(b1-4)GlcNAc(b1-2)Man
# How it was run: as §1
# [36] = target: Neu5Ac(a2-3)Gal(b1-4)GlcNAc(b1-2)Man(a1-3)[GlcNAc(b1-4)][Neu5Ac(a2-3)Gal(b1-4)GlcNAc(b1-2)Man(a1-6)]Man(b1-4)GlcNAc(b1-4)GlcNAc
# How it was run: as §1
# [37] = target: Neu5Ac(a2-3)Gal(b1-4)GlcNAc(b1-2)Man(a1-3)[Neu5Ac(a2-3)Gal(b1-4)GlcNAc(b1-2)Man(a1-6)]Man(b1-4)GlcNAc(b1-4)GlcNAc
# How it was run: as §1
# [38] = target: Neu5Ac(a2-3)Gal(b1-4)GlcNAc(b1-2)Man(a1-3)[Neu5Ac(a2-3)Gal(b1-4)GlcNAc(b1-2)Man(a1-6)]Man(b1-4)GlcNAc(b1-4)[Fuc(a1-6)]GlcNAc
# How it was run: as §1
# [39] = target: Neu5Ac(a2-3)Gal(b1-4)GlcNAc(b1-2)Man(a1-3)[Neu5Ac(a2-6)Gal(b1-4)GlcNAc(b1-2)Man(a1-6)]Man(b1-4)GlcNAc(b1-4)GlcNAc
# How it was run: as §1
binder,measurement,setting,value
B1,glycan array binding signal (z-score),[1],3.54
same,glycan array binding signal (z-score),[2],1.2
same,glycan array binding signal (z-score),[3],0.275
same,glycan array binding signal (z-score),[4],1.94
same,glycan array binding signal (z-score),[5],0.474
same,glycan array binding signal (z-score),Man(a1-3)[Man(a1-6)]Man,6.16
same,glycan array binding signal (z-score),[6],3.43
same,glycan array binding signal (z-score),[7],1.04
same,glycan array binding signal (z-score),[8],0.124
same,glycan array binding signal (z-score),[9],-0.164
same,glycan array binding signal (z-score),[10],0.039
same,glycan array binding signal (z-score),Man(a1-6)Man,-0.842
same,glycan array binding signal (z-score),Man(b1-4)GlcNAc,0.338
same,glycan array binding signal (z-score),MurNAc(b1-4)GlcNAc,-0.541
same,glycan array binding signal (z-score),Neu5Ac(a2-3)Gal,-1.05
same,glycan array binding signal (z-score),[11],-0.278
same,glycan array binding signal (z-score),[12],-0.361
same,glycan array binding signal (z-score),[13],-1.13
same,glycan array binding signal (z-score),[14],0.393
same,glycan array binding signal (z-score),[15],-1.38
same,glycan array binding signal (z-score),[16],-0.583
same,glycan array binding signal (z-score),[17],-0.043
same,glycan array binding signal (z-score),[18],-0.913
same,glycan array binding signal (z-score),[19],0.328
same,glycan array binding signal (z-score),[20],0.811
same,glycan array binding signal (z-score),[21],-0.268
same,glycan array binding signal (z-score),[22],-1.03
same,glycan array binding signal (z-score),[23],-0.331
same,glycan array binding signal (z-score),[24],-0.599
same,glycan array binding signal (z-score),[25],-0.473
same,glycan array binding signal (z-score),[26],1.11
same,glycan array binding signal (z-score),[27],0.299
same,glycan array binding signal (z-score),[28],-1.55
same,glycan array binding signal (z-score),[29],-0.451
same,glycan array binding signal (z-score),[30],-0.595
same,glycan array binding signal (z-score),[31],-0.943
same,glycan array binding signal (z-score),[32],0.667
same,glycan array binding signal (z-score),[33],-0.559
same,glycan array binding signal (z-score),Neu5Ac(a2-3)Gal(b1-4)Glc,-0.134
same,glycan array binding signal (z-score),[34],-0.845
same,glycan array binding signal (z-score),[35],0.683
same,glycan array binding signal (z-score),[36],0.061
same,glycan array binding signal (z-score),[37],-1.06
same,glycan array binding signal (z-score),[38],0.44
same,glycan array binding signal (z-score),[39],0.085

# Quoted from the listing (11 entries):
binder,measurement,setting,value
B1,glycan array binding signal (z-score),[24],-0.599
same,glycan array binding signal (z-score),[25],-0.473
same,glycan array binding signal (z-score),[26],1.11
same,glycan array binding signal (z-score),[27],0.299
same,glycan array binding signal (z-score),[28],-1.55
same,glycan array binding signal (z-score),[29],-0.451
same,glycan array binding signal (z-score),[30],-0.595
same,glycan array binding signal (z-score),[31],-0.943
same,glycan array binding signal (z-score),[32],0.667
same,glycan array binding signal (z-score),[33],-0.559
same,glycan array binding signal (z-score),Neu5Ac(a2-3)Gal(b1-4)Glc,-0.134

# From the supplement of paper PMC8728848
